Data taken from paper PMC3235137.
Results are given in words; binding and its absence hold for the method and conditions named. In cells and extracts the contact can be indirect. Some results given as binding are weak or reduced against the parent protein; the word gives no strength.

Protein sequences, listed by entry. Tags and fused reporters are not part of them. Residues count along the entry.
UniProt Q01406: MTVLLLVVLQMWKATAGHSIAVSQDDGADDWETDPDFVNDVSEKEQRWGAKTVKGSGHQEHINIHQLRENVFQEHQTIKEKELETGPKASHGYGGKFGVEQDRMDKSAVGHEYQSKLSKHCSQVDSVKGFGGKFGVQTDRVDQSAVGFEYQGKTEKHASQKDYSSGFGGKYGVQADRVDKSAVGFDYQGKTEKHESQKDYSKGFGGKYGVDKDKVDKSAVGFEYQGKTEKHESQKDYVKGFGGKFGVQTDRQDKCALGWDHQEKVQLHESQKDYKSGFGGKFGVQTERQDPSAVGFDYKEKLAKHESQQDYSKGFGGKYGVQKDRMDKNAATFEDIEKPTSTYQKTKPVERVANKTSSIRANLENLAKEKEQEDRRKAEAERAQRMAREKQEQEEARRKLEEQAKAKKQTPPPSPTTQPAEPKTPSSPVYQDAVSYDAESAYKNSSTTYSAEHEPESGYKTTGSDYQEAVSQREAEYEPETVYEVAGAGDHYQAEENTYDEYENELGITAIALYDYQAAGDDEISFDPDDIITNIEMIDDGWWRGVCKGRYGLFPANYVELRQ
UniProt Q90593, residues 17-652: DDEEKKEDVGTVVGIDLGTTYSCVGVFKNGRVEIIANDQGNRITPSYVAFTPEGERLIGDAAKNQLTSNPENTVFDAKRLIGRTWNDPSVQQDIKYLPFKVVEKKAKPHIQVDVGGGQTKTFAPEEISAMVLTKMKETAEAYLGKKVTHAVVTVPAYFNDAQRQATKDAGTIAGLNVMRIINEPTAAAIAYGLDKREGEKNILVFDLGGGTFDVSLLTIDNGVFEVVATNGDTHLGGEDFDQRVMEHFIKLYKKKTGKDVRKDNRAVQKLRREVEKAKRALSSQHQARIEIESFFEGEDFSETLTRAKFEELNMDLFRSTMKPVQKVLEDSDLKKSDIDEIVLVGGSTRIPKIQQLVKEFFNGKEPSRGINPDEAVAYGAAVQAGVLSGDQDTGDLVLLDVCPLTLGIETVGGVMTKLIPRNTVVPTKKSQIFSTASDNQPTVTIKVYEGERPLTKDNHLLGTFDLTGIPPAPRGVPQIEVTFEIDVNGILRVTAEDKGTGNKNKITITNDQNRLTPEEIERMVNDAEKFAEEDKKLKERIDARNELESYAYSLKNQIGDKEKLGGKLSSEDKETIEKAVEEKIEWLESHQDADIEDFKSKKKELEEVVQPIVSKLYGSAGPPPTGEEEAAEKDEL
UniProt P13648: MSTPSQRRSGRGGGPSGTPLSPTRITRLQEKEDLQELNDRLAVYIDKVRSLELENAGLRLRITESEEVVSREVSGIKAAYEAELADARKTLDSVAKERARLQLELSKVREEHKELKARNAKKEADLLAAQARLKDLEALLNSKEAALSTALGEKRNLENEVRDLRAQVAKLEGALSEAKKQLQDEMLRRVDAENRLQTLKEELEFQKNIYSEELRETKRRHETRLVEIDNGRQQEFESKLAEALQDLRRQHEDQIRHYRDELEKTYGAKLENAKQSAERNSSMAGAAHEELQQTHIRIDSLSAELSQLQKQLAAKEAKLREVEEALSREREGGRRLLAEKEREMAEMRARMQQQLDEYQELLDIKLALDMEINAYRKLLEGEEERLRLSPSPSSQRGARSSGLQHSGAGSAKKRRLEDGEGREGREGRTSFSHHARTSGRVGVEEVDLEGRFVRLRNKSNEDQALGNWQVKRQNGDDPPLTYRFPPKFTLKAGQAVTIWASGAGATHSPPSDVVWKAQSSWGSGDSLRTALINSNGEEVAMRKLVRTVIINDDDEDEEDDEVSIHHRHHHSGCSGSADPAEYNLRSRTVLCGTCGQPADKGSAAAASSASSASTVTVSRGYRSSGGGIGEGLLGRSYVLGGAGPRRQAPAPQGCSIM
UniProt P80566: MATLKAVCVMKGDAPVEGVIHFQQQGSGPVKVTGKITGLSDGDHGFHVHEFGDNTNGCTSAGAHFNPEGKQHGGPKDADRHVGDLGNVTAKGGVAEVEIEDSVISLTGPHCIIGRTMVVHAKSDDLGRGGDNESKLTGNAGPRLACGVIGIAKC
UniProt P60878: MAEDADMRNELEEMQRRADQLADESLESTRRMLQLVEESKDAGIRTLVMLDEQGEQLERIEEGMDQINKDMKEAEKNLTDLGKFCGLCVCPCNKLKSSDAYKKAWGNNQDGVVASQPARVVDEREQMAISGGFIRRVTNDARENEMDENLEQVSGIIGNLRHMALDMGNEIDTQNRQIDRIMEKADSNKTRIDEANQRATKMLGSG
UniProt Q8AYS8: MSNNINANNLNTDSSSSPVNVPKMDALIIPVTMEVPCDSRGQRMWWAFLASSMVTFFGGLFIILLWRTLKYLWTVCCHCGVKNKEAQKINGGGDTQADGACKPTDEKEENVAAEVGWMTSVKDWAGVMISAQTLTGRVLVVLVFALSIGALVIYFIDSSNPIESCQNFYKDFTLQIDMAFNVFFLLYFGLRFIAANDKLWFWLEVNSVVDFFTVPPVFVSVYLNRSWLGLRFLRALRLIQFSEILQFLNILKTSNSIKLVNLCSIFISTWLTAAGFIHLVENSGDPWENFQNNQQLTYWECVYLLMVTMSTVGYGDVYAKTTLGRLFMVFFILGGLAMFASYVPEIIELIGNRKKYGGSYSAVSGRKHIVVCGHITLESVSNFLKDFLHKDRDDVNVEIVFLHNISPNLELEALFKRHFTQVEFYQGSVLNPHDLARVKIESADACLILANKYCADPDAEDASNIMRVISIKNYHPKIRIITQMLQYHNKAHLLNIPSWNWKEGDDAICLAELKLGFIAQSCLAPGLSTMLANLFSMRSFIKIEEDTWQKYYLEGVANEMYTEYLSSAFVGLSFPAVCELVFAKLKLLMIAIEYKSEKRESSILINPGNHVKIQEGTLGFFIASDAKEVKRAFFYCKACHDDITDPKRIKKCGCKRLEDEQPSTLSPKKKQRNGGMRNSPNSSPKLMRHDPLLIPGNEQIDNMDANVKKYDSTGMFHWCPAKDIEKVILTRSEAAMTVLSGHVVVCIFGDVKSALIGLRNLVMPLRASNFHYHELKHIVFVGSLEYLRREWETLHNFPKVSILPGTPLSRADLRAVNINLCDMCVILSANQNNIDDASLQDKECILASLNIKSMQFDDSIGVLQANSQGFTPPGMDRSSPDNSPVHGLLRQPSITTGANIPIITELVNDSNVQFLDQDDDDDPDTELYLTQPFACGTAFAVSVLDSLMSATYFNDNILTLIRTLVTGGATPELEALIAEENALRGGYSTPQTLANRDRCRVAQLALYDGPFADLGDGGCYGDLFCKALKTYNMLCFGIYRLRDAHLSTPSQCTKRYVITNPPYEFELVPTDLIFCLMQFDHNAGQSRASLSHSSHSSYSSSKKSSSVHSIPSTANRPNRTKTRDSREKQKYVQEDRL

Legend:
Experiment in all cases: co-IP; reciprocal coIP from chick cochleae with 2.5-6 µg of antibody to the BKAP, protein G beads; blot with anti-BKα; controls: antibody preadsorbed with antigen, uncomplexed beads
[1] = biological target: T1, 14-3-3γ (chicken (endogenous in chick cochlea)) (UniProt Q5F3W6)
T1 sequence: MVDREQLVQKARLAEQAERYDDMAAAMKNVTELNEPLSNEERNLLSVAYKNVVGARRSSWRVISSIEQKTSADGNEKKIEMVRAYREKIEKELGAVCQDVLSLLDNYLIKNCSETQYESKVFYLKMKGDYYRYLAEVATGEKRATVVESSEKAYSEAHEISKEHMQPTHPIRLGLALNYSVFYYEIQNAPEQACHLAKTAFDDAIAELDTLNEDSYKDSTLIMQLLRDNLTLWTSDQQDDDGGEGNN

[2] = biological target: T2, annexin A5 (chicken (endogenous in chick cochlea)) (UniProt P17153)
T2 sequence: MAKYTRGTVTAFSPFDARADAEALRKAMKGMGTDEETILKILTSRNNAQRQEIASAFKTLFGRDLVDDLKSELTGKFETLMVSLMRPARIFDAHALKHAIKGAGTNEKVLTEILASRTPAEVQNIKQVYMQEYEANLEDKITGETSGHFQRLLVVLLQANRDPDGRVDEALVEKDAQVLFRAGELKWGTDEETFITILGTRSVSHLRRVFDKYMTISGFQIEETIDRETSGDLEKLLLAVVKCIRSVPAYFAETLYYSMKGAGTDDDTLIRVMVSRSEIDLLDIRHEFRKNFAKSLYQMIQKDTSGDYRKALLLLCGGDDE

[3] = biological target: cortactin (chicken (endogenous in chick cochlea)) (UniProt Q01406)
[4] = biological target: glucose-related protein 78 (chicken (endogenous in chick cochlea)) (UniProt Q90593)
[5] = biological target: T3, heat shock protein (HSP) 60 (chicken (endogenous in chick cochlea)) (UniProt Q5ZL72)
T3 sequence: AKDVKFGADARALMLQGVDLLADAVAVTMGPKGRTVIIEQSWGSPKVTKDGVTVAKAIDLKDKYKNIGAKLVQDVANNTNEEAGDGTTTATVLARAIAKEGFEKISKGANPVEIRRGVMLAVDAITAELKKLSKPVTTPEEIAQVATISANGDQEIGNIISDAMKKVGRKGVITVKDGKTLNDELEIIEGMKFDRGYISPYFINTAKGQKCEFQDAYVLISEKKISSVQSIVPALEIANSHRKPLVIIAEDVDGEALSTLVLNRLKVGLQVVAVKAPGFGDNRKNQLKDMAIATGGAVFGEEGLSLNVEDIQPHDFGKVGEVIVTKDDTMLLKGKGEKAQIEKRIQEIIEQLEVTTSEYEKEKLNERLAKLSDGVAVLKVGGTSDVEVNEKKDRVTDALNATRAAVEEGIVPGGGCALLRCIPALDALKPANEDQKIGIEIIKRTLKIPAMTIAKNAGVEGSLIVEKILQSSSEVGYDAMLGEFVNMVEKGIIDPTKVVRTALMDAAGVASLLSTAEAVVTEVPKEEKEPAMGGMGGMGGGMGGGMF

[6] = biological target: lamin A (chicken (endogenous in chick cochlea)) (UniProt P13648)
[7] = biological target: T4, lin-7 homolog C (chicken (endogenous in chick cochlea)) (UniProt Q5F425)
T4 sequence: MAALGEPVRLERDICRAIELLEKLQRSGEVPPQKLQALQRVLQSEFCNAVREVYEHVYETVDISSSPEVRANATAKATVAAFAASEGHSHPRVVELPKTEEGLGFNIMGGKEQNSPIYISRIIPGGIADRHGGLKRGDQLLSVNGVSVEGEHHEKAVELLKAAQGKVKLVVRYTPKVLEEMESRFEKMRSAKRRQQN

[8] = biological target: T5, prohibitin (chicken (endogenous in chick cochlea)) (UniProt P84173)
T5 sequence: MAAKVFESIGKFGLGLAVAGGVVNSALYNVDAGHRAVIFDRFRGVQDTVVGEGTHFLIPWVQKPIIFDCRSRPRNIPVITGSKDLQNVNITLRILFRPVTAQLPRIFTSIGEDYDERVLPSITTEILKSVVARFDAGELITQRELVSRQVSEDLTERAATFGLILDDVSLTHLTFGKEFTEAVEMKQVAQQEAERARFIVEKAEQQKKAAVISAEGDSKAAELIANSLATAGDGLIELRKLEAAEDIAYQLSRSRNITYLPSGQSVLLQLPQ

[9] = biological target: T6, stathmin (chicken (endogenous in chick cochlea)) (UniProt P31395)
T6 sequence: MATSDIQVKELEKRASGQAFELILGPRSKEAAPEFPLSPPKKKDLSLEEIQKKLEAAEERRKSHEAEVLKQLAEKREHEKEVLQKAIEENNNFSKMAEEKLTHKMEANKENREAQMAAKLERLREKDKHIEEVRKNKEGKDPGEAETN

[10] = biological target: superoxide dismutase 1 (chicken (endogenous in chick cochlea)) (UniProt P80566)
[11] = biological target: synaptosomal-associated protein 25 (chicken (endogenous in chick cochlea)) (UniProt P60878)

binding [1]: binds | binding [2]: binds | binding [3]: binds | binding [4]: binds | binding [5]: binds | binding [6]: binds | binding [7]: binds | binding [8]: binds | binding [9]: binds | binding [10]: binds | binding [11]: binds
Substance: large-conductance Ca2+-activated K+ (BK) channel α-subunit (from UniProt Q8AYS8 1-1137)
